{"sequences": {"note": "Sequences of proteins named here, by UniProt entry; tags and fusion partners are left off. Residues count along the entry.", "UniProt Q15116, residues 25-167": "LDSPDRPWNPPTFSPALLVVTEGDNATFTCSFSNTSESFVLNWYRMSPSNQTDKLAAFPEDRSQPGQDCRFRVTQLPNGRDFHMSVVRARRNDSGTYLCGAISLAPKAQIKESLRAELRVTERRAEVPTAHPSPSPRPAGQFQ"}, "source": "patent US20230279115A1", "binders": {"B1": {"name": "KN035 (fusion protein of the KN035 variable region and Fc) (Fc fusion, not shown: a dimerising Fc or GST)", "chain": "QVQLVESGGGLVQPGGSLRLSCAASGKMSSRRCMAWFRQAPGKERERVAKLLTTSGSTYLADSVKGRFTISRDNSKNTVYLQMNSLRAEDTAVYYCAADSFEDPTCTLVTSSGAFQYWGQGTLVTVSS"}}, "molecular_target": "recombinant human PD-1 (human) (UniProt Q15116)", "assay": "condition: 1 µg/mL (from paragraph 85 for chF2; not printed on the sheet); ELISA on coated recombinant human protein (1 µg/mL), detection with HRP-anti-human IgG", "note": "Results are given in words; binding and its absence hold for the method and conditions named. Where a sequence is shown, tags or fusion partners need not be part of it.", "data": [{"binder": "B1", "values": [{"measurement": "binding", "value": "no binding"}]}]}
